Experimental data published in patent US9512113B2, “N-(tetrazol-5-yl)- and N-(triazol-5-yl)arylcarboxylic thioamides and use thereof as herbicides” (BAYER CROPSCIENCE AG, priority 2012, dated 2016).
Some results were stated once for a whole list of compounds, not compound by compound. At least one structure is not confirmed: it was looked up by name or label, or the drawing left a doubt.

Tests used:
Format in all cases: in vivo
Cyperus serotinus [1] = assay: Post-emergence herbicidal action against harmful plants; conditions: 80 g/ha, visual assessment after about 3 weeks
Stellaria media [2] = assay: as above; conditions: 80 g/ha, visual assessment after about 3 weeks
Viola tricolor [3] = assay: as above; conditions: 80 g/ha, visual assessment after about 3 weeks
Matricaria inodora [4] = assay: as above; conditions: 80 g/ha, visual assessment after about 3 weeks
Echinochloa crus galli [5] = assay: as above; conditions: 80 g/ha, visual assessment after about 3 weeks
Procedure: (§1) Seeds of monocotyledonous and dicotyledonous weed and crop plants are placed in sandy loam in wood-fiber pots, covered with soil and cultivated in a greenhouse under good growth conditions. 2 to 3 weeks after sowing, the test plants are treated at the one-leaf stage. The compounds according to the invention, formulated in the form of wettable powders (WP) or as emulsion concentrates (EC), are then sprayed as aqueous suspension or emulsion at a water application rate of 600 to 800 I/ha (converted) with the addition of 0.2% of wetting agent onto the green parts of the plants. After the test plants have been left to stand in the greenhouse under optimal growth conditions for about 3 weeks, the action of the preparations is assessed visually in comparison to untreated controls (herbicidal action in percent (%): 100% action=the plants have died, 0% action=like control plants). Here, for example, the compounds Nos 1-8 and 1-83, at an application rate of 80 g/ha, show an activity of at least 80% against Alopecurus myosuroides, Avena fatua, Cyperus serotinus, Echinochloa crus galli, Lolium multiflorum, Setaria viridis, Abutilon theophrasti, Amaranthus retroflexus, Matricaria inodora, Pharbitis purpureum, Polygonum convolvulus, Stellaria media, Viola tricolor and Veronica persica.
(§2) These comparative experiments were carried out under the conditions mentioned above by the pre-emergence method and the post-emergence method. In the tables below, the top line in each case states the compound according to the invention, and the bottom line states the compound from WO 2012/028579 A1.

Alopecurus myosuroides [6] = assay: as above; conditions: 80 g/ha, visual assessment after about 3 weeks
Procedure: as §1, §2

Setaria viridis [7] = assay: as above; conditions: 80 g/ha, visual assessment after about 3 weeks
Procedure: as §1, §2

Amaranthus retroflexus [8] = assay: as above; conditions: 80 g/ha, visual assessment after about 3 weeks
Procedure: as §1, §2

Pharbitis purpureum [9] = assay: as above; conditions: 80 g/ha, visual assessment after about 3 weeks
Procedure: as §1, §2

Avena fatua [10] = assay: as above; conditions: 80 g/ha, visual assessment after about 3 weeks
Procedure: as §1, §2

Polygonum convolvulus = assay: as above; conditions: 80 g/ha, visual assessment after about 3 weeks
Procedure: as §1, §2

Lolium multiflorum [11] = assay: as above; conditions: 80 g/ha, visual assessment after about 3 weeks
Procedure: as §1, §2

Abutilon theophrasti [12] = assay: as above; conditions: 80 g/ha, visual assessment after about 3 weeks
Veronica persica [13] = assay: as above; conditions: 80 g/ha, visual assessment after about 3 weeks
Setaria viridis [14] = assay: Pre-emergence herbicidal action against harmful plants; conditions: 80 g/ha, visual assessment after 3 weeks
Echinochloa crus galli [15] = assay: as above; conditions: 80 g/ha, visual assessment after 3 weeks
From the text: (§3) Seeds of monocotyledonous and dicotyledonous weed plants and crop plants are placed in wood-fiber pots in sandy loam and covered with soil. The compounds according to the invention, formulated in the form of wettable powders (WP) or as emulsion concentrates (EC), are then applied as aqueous suspension or emulsion at a water application rate of 600 to 800 I/ha (converted) with the addition of 0.2% of wetting agent to the surface of the covering soil. After the treatment, the pots are placed in a greenhouse and kept under good growth conditions for the test plants. The damage to the test plants is assessed visually after a test period of 3 weeks by comparison with untreated controls (herbicidal activity in percent (%): 100% action=the plants have died, 0% action=like control plants). Here, for example, the compounds Nos 1-8, 1-26 and 4-7, at an application rate of 80 g/ha, show an activity of at least 80% against Alopecurus myosuroides, Avena fatua, Cyperus serotinus, Echinochloa crus galli, Lolium multiflorum, Setaria viridis, Abutilon theophrasti, Amaranthus retroflexus, Matricaria inodora, Pharbitis purpureum, Stellaria media, Viola tricolor and Veronica persica.
as §2

Amaranthus retroflexus [16] = assay: as above; conditions: 80 g/ha, visual assessment after 3 weeks
From the text: as §3, §2

Pharbitis purpureum [17] = assay: as above; conditions: 80 g/ha, visual assessment after 3 weeks
From the text: as §3, §2

Avena fatua [18] = assay: as above; conditions: 80 g/ha, visual assessment after 3 weeks
From the text: as §3, §2

Abutilon theophrasti [19] = assay: as above; conditions: 80 g/ha, visual assessment after 3 weeks
From the text: as §3, §2

Cyperus serotinus [20] = assay: as above; conditions: 80 g/ha, visual assessment after 3 weeks
From the text: as §3, §2

Viola tricolor [21] = assay: as above; conditions: 80 g/ha, visual assessment after 3 weeks
Alopecurus myosuroides [22] = assay: as above; conditions: 80 g/ha, visual assessment after 3 weeks
Veronica persica [23] = assay: as above; conditions: 80 g/ha, visual assessment after 3 weeks
Lolium multiflorum [24] = assay: as above; conditions: 80 g/ha, visual assessment after 3 weeks
Matricaria inodora [25] = assay: as above; conditions: 80 g/ha, visual assessment after 3 weeks
Stellaria media [26] = assay: as above; conditions: 80 g/ha, visual assessment after 3 weeks

CCOc1c(S(C)(=O)=O)ccc(C(=S)Nc2nnnn2C)c1Cl [1-83]
at least 80%: herbicidal activity against Cyperus serotinus (Cyperus serotinus [1]) | herbicidal activity against Stellaria media (Stellaria media [2]) | herbicidal activity against Viola tricolor (Viola tricolor [3]) | herbicidal activity against Matricaria inodora (Matricaria inodora [4]) | herbicidal activity against Echinochloa crus galli (Echinochloa crus galli [5]) | herbicidal activity against Alopecurus myosuroides (Alopecurus myosuroides [6]) | herbicidal activity against Setaria viridis (Setaria viridis [7]) | herbicidal activity against Amaranthus retroflexus (Amaranthus retroflexus [8]) | herbicidal activity against Pharbitis purpureum (Pharbitis purpureum [9]) | herbicidal activity against Avena fatua (Avena fatua [10]) | herbicidal activity against Polygonum convolvulus (Polygonum convolvulus) | herbicidal activity against Lolium multiflorum (Lolium multiflorum [11]) | herbicidal activity against Abutilon theophrasti (Abutilon theophrasti [12]) | herbicidal activity against Veronica persica (Veronica persica [13])

CCn1nnnc1NC(=S)c1ccc(C(F)(F)F)c(S(C)(=O)=O)c1C [1-8]
at least 80%: herbicidal activity against Cyperus serotinus (Cyperus serotinus [1]) | herbicidal activity against Stellaria media (Stellaria media [2]) | herbicidal activity against Viola tricolor (Viola tricolor [3]) | herbicidal activity against Setaria viridis (Setaria viridis [14]) | herbicidal activity against Echinochloa crus galli (Echinochloa crus galli [15]) | herbicidal activity against Amaranthus retroflexus (Amaranthus retroflexus [16]) | herbicidal activity against Pharbitis purpureum (Pharbitis purpureum [17]) | herbicidal activity against Avena fatua (Avena fatua [18]) | herbicidal activity against Abutilon theophrasti (Abutilon theophrasti [19]) | herbicidal activity against Cyperus serotinus (Cyperus serotinus [20]) | herbicidal activity against Matricaria inodora (Matricaria inodora [4]) | herbicidal activity against Echinochloa crus galli (Echinochloa crus galli [5]) | herbicidal activity against Alopecurus myosuroides (Alopecurus myosuroides [6]) | herbicidal activity against Setaria viridis (Setaria viridis [7]) | herbicidal activity against Amaranthus retroflexus (Amaranthus retroflexus [8]) | herbicidal activity against Pharbitis purpureum (Pharbitis purpureum [9]) | herbicidal activity against Avena fatua (Avena fatua [10]) | herbicidal activity against Polygonum convolvulus (Polygonum convolvulus) | herbicidal activity against Lolium multiflorum (Lolium multiflorum [11]) | herbicidal activity against Abutilon theophrasti (Abutilon theophrasti [12]) | herbicidal activity against Viola tricolor (Viola tricolor [21]) | herbicidal activity against Alopecurus myosuroides (Alopecurus myosuroides [22]) | herbicidal activity against Veronica persica (Veronica persica [23]) | herbicidal activity against Lolium multiflorum (Lolium multiflorum [24]) | herbicidal activity against Veronica persica (Veronica persica [13]) | herbicidal activity against Matricaria inodora (Matricaria inodora [25]) | herbicidal activity against Stellaria media (Stellaria media [26])

Cc1c(C(=S)Nc2nnnn2C)ccc(S(C)(=O)=O)c1-n1cccn1 [1-26]
at least 80%: herbicidal activity against Setaria viridis (Setaria viridis [14]) | herbicidal activity against Echinochloa crus galli (Echinochloa crus galli [15]) | herbicidal activity against Amaranthus retroflexus (Amaranthus retroflexus [16]) | herbicidal activity against Pharbitis purpureum (Pharbitis purpureum [17]) | herbicidal activity against Avena fatua (Avena fatua [18]) | herbicidal activity against Abutilon theophrasti (Abutilon theophrasti [19]) | herbicidal activity against Cyperus serotinus (Cyperus serotinus [20]) | herbicidal activity against Viola tricolor (Viola tricolor [21]) | herbicidal activity against Alopecurus myosuroides (Alopecurus myosuroides [22]) | herbicidal activity against Veronica persica (Veronica persica [23]) | herbicidal activity against Lolium multiflorum (Lolium multiflorum [24]) | herbicidal activity against Matricaria inodora (Matricaria inodora [25]) | herbicidal activity against Stellaria media (Stellaria media [26])

Cn1nnnc1NC(=S)c1ccc(C(F)(F)F)nc1Cl [4-7]
at least 80%: herbicidal activity against Setaria viridis (Setaria viridis [14]) | herbicidal activity against Echinochloa crus galli (Echinochloa crus galli [15]) | herbicidal activity against Amaranthus retroflexus (Amaranthus retroflexus [16]) | herbicidal activity against Pharbitis purpureum (Pharbitis purpureum [17]) | herbicidal activity against Avena fatua (Avena fatua [18]) | herbicidal activity against Abutilon theophrasti (Abutilon theophrasti [19]) | herbicidal activity against Cyperus serotinus (Cyperus serotinus [20]) | herbicidal activity against Viola tricolor (Viola tricolor [21]) | herbicidal activity against Alopecurus myosuroides (Alopecurus myosuroides [22]) | herbicidal activity against Veronica persica (Veronica persica [23]) | herbicidal activity against Lolium multiflorum (Lolium multiflorum [24]) | herbicidal activity against Matricaria inodora (Matricaria inodora [25]) | herbicidal activity against Stellaria media (Stellaria media [26])
